The results in this text go back to paper PMC10887080.

Sequences of proteins named here, by UniProt entry; tags and fusion partners are left off. A change or cut given only in a name is not applied to a line headed by its entry. Residues count along the entry.
UniProt P07954, residues 45-510: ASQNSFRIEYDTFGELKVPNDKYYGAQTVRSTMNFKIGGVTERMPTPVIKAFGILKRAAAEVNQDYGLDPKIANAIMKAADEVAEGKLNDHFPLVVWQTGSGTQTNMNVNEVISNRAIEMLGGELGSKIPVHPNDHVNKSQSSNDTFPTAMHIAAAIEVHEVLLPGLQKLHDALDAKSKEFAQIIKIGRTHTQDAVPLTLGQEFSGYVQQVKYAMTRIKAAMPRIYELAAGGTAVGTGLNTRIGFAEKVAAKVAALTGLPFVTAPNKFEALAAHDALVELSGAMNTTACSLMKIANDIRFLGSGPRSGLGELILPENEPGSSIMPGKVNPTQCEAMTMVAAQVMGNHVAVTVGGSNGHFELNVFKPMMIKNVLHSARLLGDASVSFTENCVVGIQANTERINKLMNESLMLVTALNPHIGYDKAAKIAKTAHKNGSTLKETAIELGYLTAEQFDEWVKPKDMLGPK
UniProt Q8NBP7: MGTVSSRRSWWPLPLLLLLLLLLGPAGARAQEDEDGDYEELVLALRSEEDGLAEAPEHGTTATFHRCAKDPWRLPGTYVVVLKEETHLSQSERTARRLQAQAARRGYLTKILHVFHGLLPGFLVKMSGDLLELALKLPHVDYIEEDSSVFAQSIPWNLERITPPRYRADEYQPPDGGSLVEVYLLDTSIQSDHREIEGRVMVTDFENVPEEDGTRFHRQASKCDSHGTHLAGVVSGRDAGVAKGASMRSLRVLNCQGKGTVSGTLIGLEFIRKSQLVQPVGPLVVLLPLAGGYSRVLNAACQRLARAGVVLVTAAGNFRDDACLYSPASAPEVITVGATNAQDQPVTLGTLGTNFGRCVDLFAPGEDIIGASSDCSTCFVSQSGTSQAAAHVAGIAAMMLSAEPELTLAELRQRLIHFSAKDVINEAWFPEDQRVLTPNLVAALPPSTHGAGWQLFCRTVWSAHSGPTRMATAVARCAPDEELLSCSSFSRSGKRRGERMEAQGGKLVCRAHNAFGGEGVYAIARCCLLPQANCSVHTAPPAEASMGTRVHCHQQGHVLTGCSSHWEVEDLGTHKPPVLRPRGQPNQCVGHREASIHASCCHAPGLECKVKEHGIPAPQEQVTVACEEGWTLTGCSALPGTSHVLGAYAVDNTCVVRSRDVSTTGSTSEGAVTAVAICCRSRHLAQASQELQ

In the test the target is Fumarate hydratase (human (endogenous in HCT116)) (UniProt P07954). Put plainly: co-IP; HCT116 cells lysed in IP lysis buffer with phosphorylase inhibitor and PMSF; supernatant, antibody and protein A/G agarose beads overnight at 4 °C; immunoblot; also done in FH knockdown HCT116 cells (binding of Ran to SREBF1 and SREBF2 increased).

No constants are given. Whether binding was seen depends on the method and setting. Binding seen in cells or lysates may run through a third protein.

With “protein invertase subtilisin/kexin 9 (from UniProt Q8NBP7)”, the binding entry is “no binding”.
